The whole screen tested about 350,000 compounds, of which about 1,200 (0.34%) were called active. The inconclusive results got no clear call from the source; some entries with a clear call stand among them for comparison. Calls follow the shape of the dose curve; as a rule, active = well fitted inhibition curve with a large enough effect; inconclusive = small, poorly fitted or top-dose-only effect; inactive = no such curve, though single readings can be large or run the other way. A potency beside an inconclusive call is a rough fit, not a confirmed value.
target: DNA repair nuclease/redox regulator APEX1 (Homo sapiens) (UniProt P27695); experiment: qHTS Assay for Inhibitors of the Human Apurinic/apyrimidinic Endonuclease 1 (APE1); conditions: recombinant APE1, TAMRA/BHQ-2 abasic DNA cleavage fluorescence; activity change, negative = inhibition: at 65.8 µM (top of the series); also: nearly all actives have a fitted effect of over 55% in size;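 as to activity change, negative = inhibition: plate controls were vehicle for no effect and reference inhibitor for full effect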
Procedure, shortened: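 Measures dequenching upon AP-site incision of a 5'-TAMRA/3'-BHQ-2 THF-containing duplex, 50 nM; human APE1 0.75 nM after 15 min room-temperature exposure to compound; kinetic three-point read at one-minute spacing.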
Potency is read from the fitted curve at half-maximal effect.

Amino acid sequences for entries named in this document (tags omitted).
UniProt P27695, whole entry, looked up: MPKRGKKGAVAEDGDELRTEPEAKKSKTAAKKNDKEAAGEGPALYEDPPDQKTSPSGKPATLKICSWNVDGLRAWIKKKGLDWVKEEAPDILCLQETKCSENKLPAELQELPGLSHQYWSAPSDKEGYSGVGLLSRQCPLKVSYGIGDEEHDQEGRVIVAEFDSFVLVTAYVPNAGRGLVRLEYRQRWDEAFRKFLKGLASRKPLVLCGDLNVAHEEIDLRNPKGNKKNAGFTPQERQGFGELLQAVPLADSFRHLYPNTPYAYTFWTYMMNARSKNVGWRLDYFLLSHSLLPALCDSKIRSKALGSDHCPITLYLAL

Row | Structure (SMILES) | activity change, negative = inhibition | Potency
1 | COC(=O)Cn1c2[n+](c3ccccc31)CC(O)CS2 (stereo not drawn) | inactive: 5.33% | –
2 | CC(C)(C)c1ccccc1OCCOCCN1CCCCCC1 | inactive: 2.68% | –
3 | NC(=O)c1cc(N2C(=O)C=CC2=O)ccc1Cl | inactive: -5.48% | –
4 | CS(=O)(=O)c1ccccc1C(=O)Nc1ccc(-c2nc3ccccc3[nH]2)cc1 | inactive: 26.3% | –
5 | OCCN1CCN(CCSc2ccccc2)CC1 | – | inconclusive: 2.82 µM [inhibitor, partial curve, poor fit]
6 | CCOc1cccc(/C(O)=C2/C(=O)C(=O)N(CCOC)C2c2ccc(C)o2)c1 (stereo not drawn) | – | inconclusive: 0.0224 µM [inhibitor, full curve, poor fit]
7 | COc1ccc(NS(=O)(=O)c2ccc(SC)cc2)cc1 | – | inconclusive: 0.0398 µM [inhibitor, full curve]
8 | Cc1c(S(=O)(=O)NCCc2ccccc2)c(=O)n(C)c(=O)n1C | – | inconclusive: 20 µM [inhibitor, single point]
9 | CC1(OC(=O)C2CCCC2)C(=O)C=C2C=C(c3ccsc3)N(Cc3ccco3)C=C2C1=O (stereo not drawn) | – | inconclusive: 3.16 µM [inhibitor, single point]
10 | CCC(C)(C)NC(=O)c1cc(S(=O)(=O)N2CCc3ccccc32)cn1C | inactive: -3.85% | –
11 | O=C(NC1CCCCC1)c1cc(-c2ccco2)on1 | inactive: -3.78% | –
12 | CCOC(=O)c1c(C)[nH]c(C)c1S(=O)(=O)N(C)CC(=O)Nc1ccccc1OC | – | inconclusive: 23.8 µM [inhibitor, single point]
13 | NS(=O)(=O)c1ccc(N2N=C(c3ccc(Br)cc3)CC2c2ccc(F)cc2)cc1 (stereo not drawn) | – | inconclusive: 7.08 µM [inhibitor, partial curve]
14 | Cc1cc(C)c(-c2cc(NC(=O)COC(=O)c3ccc(C#N)cc3)n(-c3ccccc3)n2)cc1C | – | inconclusive: 17.8 µM [inhibitor, single point]
15 | O=C(CNC(=O)c1[nH]cnc1C(=O)N[C@@H](Cc1ccccc1)C(=O)OCc1ccccc1)OCc1ccccc1 | inactive: 18.9% | –
16 | CC(C)n1c(O)c(N=NC(=O)Cc2csc(N3CCOCC3)n2)c2ccccc21 | – | inconclusive: 5.62 µM [inhibitor, single point]
17 | Cc1ccc(-n2nnc(-c3nccs3)n2)cc1 | – | inconclusive: 7.08 µM [inhibitor, single point]
18 | CCNc1nc(NCC)n2c(SCC(=O)Nc3c(C)cccc3C)nnc2n1 | – | inconclusive: 16.8 µM [inhibitor, single point]
19 | O=C(O)c1ccc(NS(=O)(=O)c2ccc3c(c2)C2C=CCC2C(c2ccccc2F)N3)cc1 (stereo not drawn) | – | inconclusive: 28.2 µM [inhibitor, partial curve]
20 | O=C(CSc1cccc(C(F)(F)F)c1)NC(=O)NCc1ccco1 | – | inconclusive: 28.2 µM [inhibitor, single point]
21 | Cc1ccc2oc(=O)n(CC(=O)OC(C)C)c2c1 | – | inconclusive: 0.0014 µM [inhibitor, full curve]
22 | COCCCNC(=O)c1c[nH]c2ccc(S(=O)(=O)N(C)c3ccccc3C)cc2c1=O | inactive: 33.6% | –

Quoted from the listing.
Potency, CC1(OC(=O)C2CCCC2)C(=O)C=C2C=C(c3ccsc3)N(Cc3ccco3)C=C2C1=O (stereo not drawn) is entered as inconclusive: 3.16 µM [inhibitor, single point]
Potency, O=C(CSc1cccc(C(F)(F)F)c1)NC(=O)NCc1ccco1 is entered as inconclusive: 28.2 µM [inhibitor, single point]

Following part

Row | Structure (SMILES) | activity change, negative = inhibition | Potency
23 | Cc1ccc(NC(=S)C2=C(O)c3ccccc3N(C)S2(=O)=O)cc1 | – | inconclusive: 3.55 µM [inhibitor, single point]
24 | O=C1CCN(CCc2ccccc2)CCN1[C@H](COc1ccccc1)Cc1ccccc1 | inactive: 21.5% | –
25 | Cc1ccccc1OCC(O)CN1CCN(CCN2C(=O)c3cccc4cccc(c34)C2=O)CC1 (stereo not drawn) | – | inconclusive: 28.2 µM [inhibitor, single point]
26 | Cc1ccc(CNc2ccc3nnc(-c4ccccc4)n3n2)cc1 | – | inconclusive: 5.62 µM [inhibitor, single point]
27 | O=C(/C=C/c1cccs1)NC(=S)NNC(=O)c1ccccc1O | – | inconclusive: 7.08 µM [inhibitor, single point]
28 | O=C1CCN(C(=O)c2ccc(Cl)cc2)N1 | – | inconclusive: 1580 µM [inhibitor, partial curve, poor fit]
29 | O=C(COC(=O)Cn1cnc2ccccc21)Nc1cc2c(cc1Cl)C(=O)c1ccccc1C2=O | – | inconclusive: 14.1 µM [inhibitor, partial curve]
30 | O=C(COc1ccc2ccc(=O)oc2c1)Nc1c(Cl)cccc1C(F)(F)F | – | inconclusive: 21.2 µM [inhibitor, single point]
31 | COC(=O)Cn1cccc1C(=O)c1ccccc1 | inactive: 0.401% | –
32 | COc1ccc(NC(=O)CS(=O)CC(=O)NCC2OCCc3ccccc32)cc1 (stereo not drawn) | – | inconclusive: 0.005 µM [inhibitor, full curve, poor fit]
33 | S=C(Nc1ccccc1)N1CCCN1c1ccccc1 | – | inconclusive: 3.16 µM [inhibitor, single point]
34 | O=C(NCc1ccncc1)c1cccc(Cn2cc(Br)cn2)c1 | inactive: -4.1% | –
35 | CN(C)c1ccc(/C=C(/NC(=O)c2ccccc2)C(=O)NCCCn2ccnc2)cc1 | inactive: -9.9% | –
36 | O=C(N/N=C/c1ccc(Br)s1)c1c[nH]c2ccccc12 | – | inconclusive: 20 µM [inhibitor, partial curve, poor fit]
37 | Cc1ccc(NC(=O)CSc2nc(N)cc(N)n2)cc1S(=O)(=O)N1CCOCC1 | – | inconclusive: 7.08 µM [inhibitor, partial curve]
38 | CC1=CC(C)(C)N2C(=O)C3(C(C#N)=C(N)Oc4cc(O)ccc43)c3cccc1c32 (stereo not drawn) | – | inconclusive: 35.5 µM [inhibitor, single point]
39 | CCOC(=O)NC(=O)CSc1nc2ccccc2[nH]1 | – | inconclusive: 5.62 µM [inhibitor, single point]
40 | Cc1ccc(S(=O)(=O)N/N=C/c2c(C)nn(-c3ccccc3)c2C)cc1 | – | inconclusive: 14.1 µM [inhibitor, partial curve]
41 | Nc1ccc(S(=O)(=O)NCC(=O)OC2CCOC2=O)cc1[N+](=O)[O-] (stereo not drawn) | – | inconclusive: 18.9 µM [inhibitor, single point]
42 | NC(=S)N/N=C/c1ccc(-c2ccc(SC(F)F)cc2)o1 | – | inconclusive: 31.6 µM [inhibitor, single point]
43 | CCN(CC)c1ccc(N=Nc2nn(C)c(C)c2[N+](=O)[O-])cc1 | – | inconclusive: 25.1 µM [inhibitor, partial curve]
